The test concerns the target Suz12-TAP (mouse) (UniProt Q80U70). In words: affinity purification with mass spectrometry; Suz12-TAP tandem affinity purified from Suz12^Suz12TAP/+ ESCs; co-purified proteins identified by mass spectrometry.

The chains behind the UniProt entries cited, without tags or fusion partners.
UniProt Q80U70: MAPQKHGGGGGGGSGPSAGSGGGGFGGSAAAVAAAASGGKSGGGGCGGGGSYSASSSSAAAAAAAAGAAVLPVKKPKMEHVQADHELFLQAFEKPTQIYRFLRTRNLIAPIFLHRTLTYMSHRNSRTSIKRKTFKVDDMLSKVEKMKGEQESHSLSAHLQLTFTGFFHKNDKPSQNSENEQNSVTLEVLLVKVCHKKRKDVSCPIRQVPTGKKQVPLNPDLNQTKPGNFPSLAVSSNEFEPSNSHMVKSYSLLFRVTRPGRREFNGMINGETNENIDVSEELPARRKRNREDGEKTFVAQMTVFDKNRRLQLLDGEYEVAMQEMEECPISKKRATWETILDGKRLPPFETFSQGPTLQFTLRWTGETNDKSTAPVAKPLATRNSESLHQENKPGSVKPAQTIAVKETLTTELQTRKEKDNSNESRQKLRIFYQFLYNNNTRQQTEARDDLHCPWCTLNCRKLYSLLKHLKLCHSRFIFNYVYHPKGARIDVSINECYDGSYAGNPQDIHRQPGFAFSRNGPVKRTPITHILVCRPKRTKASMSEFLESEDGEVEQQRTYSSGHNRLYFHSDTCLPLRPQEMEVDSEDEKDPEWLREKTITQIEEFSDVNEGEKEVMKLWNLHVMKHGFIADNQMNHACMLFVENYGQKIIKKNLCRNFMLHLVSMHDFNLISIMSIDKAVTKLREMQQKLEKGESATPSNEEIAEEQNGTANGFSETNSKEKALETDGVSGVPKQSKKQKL
UniProt Q02395: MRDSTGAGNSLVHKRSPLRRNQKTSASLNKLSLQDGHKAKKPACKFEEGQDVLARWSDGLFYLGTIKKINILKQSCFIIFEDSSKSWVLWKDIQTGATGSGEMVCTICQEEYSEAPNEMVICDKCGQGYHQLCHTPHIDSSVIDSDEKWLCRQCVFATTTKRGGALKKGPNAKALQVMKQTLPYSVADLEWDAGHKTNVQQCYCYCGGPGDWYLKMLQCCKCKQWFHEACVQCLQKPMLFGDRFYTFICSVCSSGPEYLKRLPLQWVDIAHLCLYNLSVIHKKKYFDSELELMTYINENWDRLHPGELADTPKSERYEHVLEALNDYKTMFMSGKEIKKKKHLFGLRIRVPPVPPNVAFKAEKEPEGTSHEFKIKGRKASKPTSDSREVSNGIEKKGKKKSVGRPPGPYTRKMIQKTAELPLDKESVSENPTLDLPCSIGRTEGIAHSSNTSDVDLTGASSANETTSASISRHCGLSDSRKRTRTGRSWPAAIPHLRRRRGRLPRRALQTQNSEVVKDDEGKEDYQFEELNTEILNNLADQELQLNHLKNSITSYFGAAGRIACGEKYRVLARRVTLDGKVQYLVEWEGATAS

No constants are given. Whether binding was seen depends on the method and setting. Binding seen in cells or lysates may run through a third protein. Here binding means that the protein was enriched with, or labelled near, the bait; the list need not be complete.

Take Pcl2 (from UniProt Q02395 1-593): the binding result is “binds”.

(Values after publication PMC3305387.)
